Reference: PMC12307804
These are yes or no findings as the source states them, for the method shown. Binding seen in cells or lysates may run through a third protein. Some entries that bind do so weakly or less than the wild type.

Columns and labels:
[1] = biological target: WRKY53 (Arabidopsis thaliana) (UniProt Q9SUP6); experiment: split reporter; BiFC 2in1 (pBiFCt2in1-NN, both partners in one vector, 35S promoter, RFP as internal control) in transiently transformed N. benthamiana leaves; confocal microscopy two days after infiltration; YFP/RFP ratio for each nucleus
[2] = biological target: T1, WRKY25 (Arabidopsis thaliana) (UniProt O22921); experiment: as above
T1 sequence: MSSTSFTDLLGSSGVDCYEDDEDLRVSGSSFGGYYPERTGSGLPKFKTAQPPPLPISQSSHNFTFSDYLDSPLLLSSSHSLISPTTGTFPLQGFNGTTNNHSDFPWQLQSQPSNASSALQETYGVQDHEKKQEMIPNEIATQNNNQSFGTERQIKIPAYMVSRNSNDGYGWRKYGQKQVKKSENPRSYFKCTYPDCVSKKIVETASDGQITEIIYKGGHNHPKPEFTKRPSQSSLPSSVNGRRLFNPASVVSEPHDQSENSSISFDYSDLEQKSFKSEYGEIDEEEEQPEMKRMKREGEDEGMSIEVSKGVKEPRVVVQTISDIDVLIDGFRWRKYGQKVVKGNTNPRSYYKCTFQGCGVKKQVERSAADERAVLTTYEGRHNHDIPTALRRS

[3] = biological target: WRKY53 (Arabidopsis thaliana) (UniProt Q9SUP6); experiment: split reporter; ratiometric BiFC (pBiFCt-2in1-NN) in transiently transformed Arabidopsis protoplasts, overnight incubation in the dark, read by flow cytometry (CytoFLEX)
[4] = biological target: WRKY18 (Arabidopsis thaliana), Q9C5T4; experiment: split reporter; BiFC 2in1 (pBiFCt2in1-NN, both partners in one vector, 35S promoter, RFP as internal control) in transiently transformed N. benthamiana leaves; confocal microscopy two days after infiltration; YFP/RFP ratio for each nucleus; conditions: remark: other sources report otherwise

B1: WRKY53 (protein, UniProt Q9SUP6 1-324)
chain: MEGRDMLSWEQKTLLSELINGFDAAKKLQARLREAPSPSSSFSSPATAVAETNEILVKQIVSSYERSLLLLNWSSSPSVQLIPTPVTVVPVANPGSVPESPASINGSPRSEEFADGGGSSESHHRQDYIFNSKKRKMLPKWSEKVRISPERGLEGPQDDVFSWRKYGQKDILGAKFPRSYYRCTHRSTQNCWATKQVQRSDGDATVFEVTYRGTHTCSQAITRTPPLASPEKRQDTRVKPAITQKPKDILESLKSNLTVRTDGLDDGKDVFSFPDTPPFYNYGTINGEFGHVESSPIFDVVDWFNPTVEIDTTFPAFLHESIYY
- binding [1]: binds
- binding [2]: binds
- binding [3]: binds

B2: WRKY53, Q9SUP6 1-324 (protein)
chain: MEGRDMLSWEQKTLLSELINGFDAAKKLQARLREAPSPSSSFSSPATAVAETNEILVKQIVSSYERSLLLLNWSSSPSVQLIPTPVTVVPVANPGSVPESPASINGSPRSEEFADGGGSSESHHRQDYIFNSKKRKMLPKWSEKVRISPERGLEGPQDDVFSWRKYGQKDILGAKFPRSYYRCTHRSTQNCWATKQVQRSDGDATVFEVTYRGTHTCSQAITRTPPLASPEKRQDTRVKPAITQKPKDILESLKSNLTVRTDGLDDGKDVFSFPDTPPFYNYGTINGEFGHVESSPIFDVVDWFNPTVEIDTTFPAFLHESIYY
- binding [4]: binds
